# Assay: general procedure: Fmoc solid-phase peptide synthesis; Wang resin loaded with Fmoc-L-Cys(Trt)-OH; PyBOP, DIPEA
# Details: conjugation step
substance,measurement,value
Pte-Glu-Asp-Arg-Asp-Asp-Cys-OH,conjugation yield,70%
